# In PubChem BioAssay AID504327 (National Center for Advancing Translational Sciences (NCATS), 2011):
# By UniProt entry, the sequences of proteins in these tests, tags left out.
# UniProt Q92830, whole entry, looked up: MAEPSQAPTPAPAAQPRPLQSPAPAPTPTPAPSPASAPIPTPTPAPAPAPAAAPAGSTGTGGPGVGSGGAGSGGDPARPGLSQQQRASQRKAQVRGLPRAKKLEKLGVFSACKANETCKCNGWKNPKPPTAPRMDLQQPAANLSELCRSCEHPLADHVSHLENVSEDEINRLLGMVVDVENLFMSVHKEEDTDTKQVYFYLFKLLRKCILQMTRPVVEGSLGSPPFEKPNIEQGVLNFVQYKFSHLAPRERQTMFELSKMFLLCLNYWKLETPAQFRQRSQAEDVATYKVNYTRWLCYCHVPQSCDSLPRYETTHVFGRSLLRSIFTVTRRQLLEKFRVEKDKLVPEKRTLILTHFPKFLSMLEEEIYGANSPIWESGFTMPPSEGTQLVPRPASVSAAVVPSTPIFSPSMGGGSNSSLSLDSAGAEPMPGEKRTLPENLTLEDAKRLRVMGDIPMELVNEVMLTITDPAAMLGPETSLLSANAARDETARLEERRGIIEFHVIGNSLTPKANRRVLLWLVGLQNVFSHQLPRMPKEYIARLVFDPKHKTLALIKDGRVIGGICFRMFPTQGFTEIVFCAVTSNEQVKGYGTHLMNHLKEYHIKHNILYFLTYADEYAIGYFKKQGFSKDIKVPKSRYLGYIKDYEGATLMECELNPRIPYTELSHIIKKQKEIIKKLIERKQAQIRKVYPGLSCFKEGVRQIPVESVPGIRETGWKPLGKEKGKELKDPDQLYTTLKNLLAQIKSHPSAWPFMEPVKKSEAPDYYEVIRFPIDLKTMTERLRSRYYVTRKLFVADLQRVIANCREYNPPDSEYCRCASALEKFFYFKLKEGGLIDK
# Several values for one entry are separate records, joined by “and”; a condition that tells them apart may be missing. Equal entries are not always repeated. Out of some 390,000 compounds screened, about 820 (0.21%) were called active. Inconclusive results, whose numbers are uncertain, are shown with a selection of clear calls. The call rests on the fitted dose curve; in most records, active means well fitted inhibition curve with a large enough effect; inconclusive means small, poorly fitted or top-dose-only effect, or another doubt; inactive means no such curve, though single readings can be large or run the other way. Potencies beside an inconclusive call are fits to weak or partial responses and may not hold up.
# Molecular target: Histone acetyltransferase KAT2A (Homo sapiens) (UniProt Q92830)
# Experiment: qHTS Assay for Inhibitors of GCN5L2
# Settings: GCN5L2 HAT assay, ThioGlo1 CoA-SH fluorescence; series mostly up to 58.9 µM
# In short: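 Preincubate 20nM GCN5L2 with compound 15 min, RT → add 50uM ThioGlo1 + 75uM H3(1-25) + 70uM acetyl-CoA → read fluorescence 0 and 20 min. Primary qHTS; fluorescent artifacts likely.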
# Potency means the concentration at half of the fitted maximal effect.
row,SMILES,Potency
1,O=C(CSc1ccc(-c2ccccn2)nn1)Nc1nccs1,"inconclusive: 0.708 µM [inhibitor, single point]"
2,CCOC(=O)Cc1ccc(NC(=O)N2CCc3c(sc4c3CCCC4)C2c2ccc(F)cc2)cc1 (centres undefined),inactive
3,Cc1ccc(OCC(=O)Nc2ccc3c(c2)nc2n3CCOC2)cc1,inactive
4,CCOc1ccc(CCNC(=O)Cc2ccc(NC3=NC4CS(=O)(=O)CC4S3)cc2)cc1 (centres undefined),"inconclusive: 5.01 µM [inhibitor, full curve, poor fit]"
5,Cc1cc(C)n2nc(CC(=O)NCc3ccc(F)cc3)nc2n1,inactive
6,CCCC(=O)Oc1ccccc1C1SCc2cc(C)c(C)cc2CS1,inactive
7,CCC(=O)c1cn(CC(=O)Nc2cc(C)ccc2C)c2ccccc12,"inconclusive: 31.6 µM [inhibitor, single point]"
8,Cc1c(C(=O)Nc2ccc(C(F)(F)F)cc2)sc2ncn(CC(=O)N3CCN(c4ccccn4)CC3)c(=O)c12,"inconclusive: 39.8 µM [inhibitor, single point]"
9,CC1=C(/C=C/C(C)=C/C=C/C(C)=C/C=C/C=C(C)/C=C/C=C(C)/C=C/C2=C(C)CCCC2(C)C)C(C)(C)CCC1,"inconclusive: 31.6 µM [inhibitor, partial curve]"
10,COc1cccc(CN2CCC(n3nccc3NC(=O)CCCc3ccccc3)CC2)c1,"inconclusive: 7.08 µM [inhibitor, single point]"
11,O=C(c1ccc(Br)s1)N1CCN(S(=O)(=O)c2ccccc2)CC1,"inconclusive: 0.141 µM [inhibitor, full curve, poor fit]"
12,COc1ccccc1N1C(=O)C2C(C(=O)c3ccccc3)=NN(c3ccccc3)C2C1=O (centres undefined),"inconclusive: 39.8 µM [inhibitor, single point]"
13,COc1ccc2nc(CNC(=O)C3CCC(=O)N(CCc4ccccc4)C3)[nH]c2c1 (centres undefined),"inconclusive: 2.82 µM [inhibitor, partial curve]"
14,CCC(C)NCCOCCOc1ccc(C)cc1Br (centres undefined),"inconclusive: 0.316 µM [inhibitor, partial curve, poor fit]"
15,Cc1nnc(SCC(=O)NC2CC2)n1-c1ccccc1,"inconclusive: 3.98 µM [inhibitor, single point]"
16,Cc1cc(C)c2c(n1)SCC(=O)N2CC(=O)Nc1cc(F)ccc1F,"inconclusive: 0.141 µM [inhibitor, full curve, poor fit]"
17,CCCCC(=O)N(Cc1nc2sc(C)c(C)c2c(=O)[nH]1)C1CCCC1,"inconclusive: 0.708 µM [inhibitor, partial curve, poor fit]"
18,C[C@@H]1C(c2cccc(Cl)c2)=NN(c2ccc(Br)cc2)[C@H]1C(=O)N1CCOC1=O,"inconclusive: 25.1 µM [inhibitor, single point] and inconclusive: 39.8 µM [inhibitor, single point]"
19,CCc1ccc(CNC(=O)CCC(=O)n2ncc3cc(C)ccc32)cc1,"inconclusive: 39.8 µM [inhibitor, single point]"
20,CCCOc1c(OC)cccc1C1CC(=O)Nc2cc(OC)c(OC)c(OC)c21 (centres undefined),"inconclusive: 39.8 µM [inhibitor, single point]"
21,COC(=O)c1c(NC(=O)CCCOc2ccc(C(C)(C)C)cc2)sc2c1C(C(=O)OC)CC2 (centres undefined),"inconclusive: 39.8 µM [inhibitor, single point]"
22,CN(C)c1ccc(O)c2c1CC1CC3[C@@H](N(C)C)C(=O)C(C(N)=O)=C(O)[C@]3(O)C(=O)C1=C2O (some centres undefined),"inconclusive: 39.8 µM [inhibitor, single point]"

row,SMILES,Potency
1,CCOC(=O)c1c(C)n(C)c2ccc(OC(=O)c3ccc([N+](=O)[O-])cc3)cc12,active: 8.91 µM
2,O=C(O)c1cc2cccc(S(=O)(=O)N3CCOCC3)c2cc1O,"inconclusive: 39.8 µM [inhibitor, single point]"
3,COc1ccc(OCC(=O)Nc2ccccc2C(=O)Nc2ccc(C(=O)O)cc2)cc1,"inconclusive: 39.8 µM [inhibitor, partial curve, poor fit]"
4,COc1ccc(-c2c(C)c3ccc(O)c(CN4CCOCC4)c3oc2=O)cc1,"inconclusive: 39.8 µM [inhibitor, single point]"
5,CCN(Cc1ccncc1)C(=O)CCc1nnc(CCC2CCCCC2)o1,"inconclusive: 5.01 µM [inhibitor, full curve, poor fit]"
6,CC(Cl)C(=O)NNc1cccc(Cl)n1 (centres undefined),"inconclusive: 4.47 µM [inhibitor, single point]"
7,CC(C)c1nnc(NC(=O)CCC(=O)N2CCN(c3ccccn3)CC2)s1,"inconclusive: 35.5 µM [inhibitor, single point]"
8,COCCn1c(=O)c(-c2cn(C)c3ccccc23)nc2cnc(N3CCNCC3)nc21,"inconclusive: 39.8 µM [inhibitor, single point]"
9,CC(=O)COc1ccc2oc(=O)cc(-c3cc4ccccc4o3)c2c1,"inconclusive: 39.8 µM [inhibitor, single point]"
10,O=C(OC1CCN(c2ncc(C(F)(F)F)cc2Cl)CC1)c1ccccc1,"inconclusive: 31.6 µM [inhibitor, single point]"
11,CS(=O)(=O)N(CC(=O)N1CCN(c2cccc(Cl)c2)CC1)c1cccc(F)c1,"inconclusive: 28.2 µM [inhibitor, single point]"
12,CC(=O)OCC1OC(n2cnc3c(Cl)nc(Cl)nc32)C(OC(C)=O)C1OC(C)=O (centres undefined),inactive
13,CCOc1ccc2ncc(S(=O)(=O)c3ccccc3)c(N3CCN(c4ccc(OC)cc4)CC3)c2c1,inactive
14,COc1ccc2nc(N3C(=O)/C(=C/c4ccccc4)NC3=S)sc2c1,"inconclusive: 14.1 µM [inhibitor, partial curve]"
15,COc1ccc(Cl)cc1C(=O)NCCCn1ccnc1,"inconclusive: 8.91 µM [inhibitor, single point]"
16,O=C1C(=O)N(CCCn2ccnc2)C(c2ccc(Br)cc2)/C1=C(\O)c1ccc2c(c1)OCCO2 (centres undefined),"inconclusive: 3.16 µM [inhibitor, single point]"
17,CCOC(=O)C1(Cc2cccc(Cl)c2)CCCN(C(=O)c2cnn(CC)c2)C1 (centres undefined),"inconclusive: 39.8 µM [inhibitor, single point]"
18,CC1CN(S(=O)(=O)c2ccc(C(=O)Nc3nnc(-c4ccc5c(c4)CCCC5)o3)cc2)CC(C)O1 (centres undefined),inactive
19,O=C(/C=C/c1cccc([N+](=O)[O-])c1)NC(=S)Nc1ccccc1C(=O)O,"inconclusive: 28.2 µM [inhibitor, single point]"
20,C/C(=N\Nc1ccccc1C)c1cccnc1,"inconclusive: 6.31 µM [inhibitor, partial curve]"
21,COc1ccc(S[C@@H](CCN2CC[C@H](O)CCC2=O)c2ccccc2)cc1,inactive
22,Cc1ccc(CCNS(=O)(=O)c2cc3c(cc2C)n(C)c(=O)c(=O)n3C)cc1,"inconclusive: 0.794 µM [inhibitor, single point]"

# Retrieved by structure from the entries so far:
row,SMILES,Potency
3,Cc1ccc(OCC(=O)Nc2ccc3c(c2)nc2n3CCOC2)cc1,inactive
1,CCOC(=O)c1c(C)n(C)c2ccc(OC(=O)c3ccc([N+](=O)[O-])cc3)cc12,active: 8.91 µM
13,CCOc1ccc2ncc(S(=O)(=O)c3ccccc3)c(N3CCN(c4ccc(OC)cc4)CC3)c2c1,inactive
19,CCc1ccc(CNC(=O)CCC(=O)n2ncc3cc(C)ccc32)cc1,"inconclusive: 39.8 µM [inhibitor, single point]"

# The list continues.

row,SMILES,Potency
1,O=C(c1ccco1)N1CCN(c2ncccn2)CC1,inactive
2,CCCN1CCN(C(=O)c2cc3c(s2)-c2ccccc2OC3)CC1,"inconclusive: 39.8 µM [inhibitor, single point]"
3,CCC(C)c1ccc(S(=O)(=O)N2CCN3CCCC3C2)cc1 (centres undefined),"inconclusive: 35.5 µM [inhibitor, single point]"
4,CS(=O)(=O)Nc1ccc(-c2ccc(/C=C3\SC(N)=NC3=O)o2)cc1,inactive
5,COCCNc1ncnc2ccc(-c3ccc(N(C)C)cc3)cc12,"inconclusive: 28.2 µM [inhibitor, single point]"
6,COc1ccc2c(COC(=O)CC3Sc4ccccc4NC3=O)cc(=O)oc2c1 (centres undefined),"inconclusive: 28.2 µM [inhibitor, partial curve]"
7,Cc1ccc2c(NC(=O)c3ccco3)cccc2n1,"inconclusive: 6.31 µM [inhibitor, full curve]"
8,COc1ccc(CN2CCN(C3CCSCC3)CC2CCO)c(C)c1C (centres undefined),"inconclusive: 35.5 µM [inhibitor, single point]"
9,c1csc(Cc2nn3c(-c4n[nH]c5c4CCC5)nnc3s2)c1,"inconclusive: 17.8 µM [inhibitor, partial curve, poor fit]"
10,O=C(O)CSc1ncnc2c1sc1nc(-c3ccccc3)c3c(c12)CCC3,"inconclusive: 39.8 µM [inhibitor, single point]"
11,Cc1ccc(-n2c(N)c(C(=O)NCc3cccnc3)sc2=S)cc1,"inconclusive: 0.794 µM [inhibitor, single point]"
12,COc1cc2c(cc1OC)-c1cc(OCCN3CCOCC3)nc(=O)n1CC2,"inconclusive: 14.1 µM [inhibitor, partial curve]"
13,CCc1ccccc1-n1c(SCC(=O)N2CCCC2)nnc1-c1ccccn1,inactive
14,NS(=O)(=O)c1ccc(NC(=O)c2ccc(-c3ccccc3)cc2)cc1,"inconclusive: 22.4 µM [inhibitor, partial curve, poor fit]"
15,COc1cc2oc3ccccc3c(=O)c2cc1OC,"inconclusive: 0.794 µM [inhibitor, full curve, poor fit]"
16,CSc1ccc(CCNC(=O)c2csc3c2CCCCC3)cc1,inactive
17,CC(C)c1ccc(NC(=O)Cc2ccc(NC3=NC4CS(=O)(=O)CC4S3)cc2)cc1 (centres undefined),"inconclusive: 3.16 µM [inhibitor, partial curve]"
18,COc1ccc(O)c(-c2cc(-c3ccccc3Cl)[nH]n2)c1,"inconclusive: 39.8 µM [inhibitor, single point]"
19,O=C(CSc1nnc(-c2ccco2)c(-c2ccco2)n1)c1ccccc1,inactive
20,Cc1sc2ncnc(N3CCC(C(=O)N(C)CC(=O)Nc4ccccc4Cl)CC3)c2c1C,"inconclusive: 1 µM [inhibitor, full curve, poor fit]"

# 3 entries out of the list, ordered by SMILES length, descending.
row,SMILES,Potency
19,O=C(CSc1nnc(-c2ccco2)c(-c2ccco2)n1)c1ccccc1,inactive
8,COc1ccc(CN2CCN(C3CCSCC3)CC2CCO)c(C)c1C (centres undefined),"inconclusive: 35.5 µM [inhibitor, single point]"
5,COCCNc1ncnc2ccc(-c3ccc(N(C)C)cc3)cc12,"inconclusive: 28.2 µM [inhibitor, single point]"
